# Laboratory results from the supplement of paper PMC3334620.
# In all, about 33,000 sequences were measured (“E-score (-0.5 to 0.5)”: median about -0.0014, highest 2% from about 0.25 on). The list shows a part of the results.
# Target: T1, Cad1 (UniProt P24813)
# T1 sequence: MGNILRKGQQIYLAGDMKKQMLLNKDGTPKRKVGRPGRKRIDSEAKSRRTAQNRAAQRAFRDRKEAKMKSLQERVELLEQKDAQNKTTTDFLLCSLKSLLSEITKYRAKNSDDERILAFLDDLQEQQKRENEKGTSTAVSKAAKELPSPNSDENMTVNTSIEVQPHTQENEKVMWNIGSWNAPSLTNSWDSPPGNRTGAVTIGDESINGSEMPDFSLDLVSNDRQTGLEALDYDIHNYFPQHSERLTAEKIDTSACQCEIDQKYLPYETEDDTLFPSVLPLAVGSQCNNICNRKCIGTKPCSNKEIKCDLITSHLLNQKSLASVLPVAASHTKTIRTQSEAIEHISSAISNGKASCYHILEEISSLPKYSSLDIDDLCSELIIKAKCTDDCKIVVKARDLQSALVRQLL
# Assay: PBM E-score (8-mer binding enrichment) (E-score (-0.5 to 0.5)); higher = stronger / more preferred TF binding
# Conditions: protein concentration: 100 nM; construct: GST-full length
# Summary of the method: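 Detection of bound protein used fluorescent anti-GST, with scans normalised by masliner. The proteins were GST-tagged yeast transcription factors applied at about 100-200 nM to universal all-10-mer Agilent arrays made double-stranded by primer extension. Each ungapped eight-base word, pooled with its reverse complement, was scored with an E-score from the Universal PBM Analysis Suite.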
row,Sequence,PBM E-score
1,AAAGCAGC,0.17
2,CTCATCGA,0.0528
3,AACGCCAC,0.0935
4,CATGATTA,0.216
5,CAAAGACG,-0.0208
6,ACGAGTTC,0.103
7,CTACCTTC,-0.0206
8,CAGCAATG,-0.196
9,AGACGGTG,-0.0762
10,CAAGACAG,-0.0259
11,GGCCAACA,-0.0831
12,ACACAGAT,0.0606
13,CCCAGCGA,-0.0573
14,CCACTAGC,-0.269
15,AATTCATG,0.24
16,CCACAAGG,-0.179
17,GCGGATCC,-0.093
18,AGGTGAAA,0.0145
19,ACTCACAA,0.0634
20,CAATGCCC,-0.149
21,CACCGATC,0.0298
22,GCGACGAC,-0.264
23,AGAGTGGA,-0.0214
24,GAACGCGC,0.0894
25,ACCACAAT,-0.0451

# Some values from the entries so far:
# Entry for GAACGCGC under PBM E-score: 0.0894
# Entry for CTCATCGA under PBM E-score: 0.0528
# Entry for ACCACAAT under PBM E-score: -0.0451
# Entry for GCGACGAC under PBM E-score: -0.264
# Entry for CCACTAGC under PBM E-score: -0.269

# The list continues.

row,Sequence,PBM E-score
1,CCATAGAG,-0.0455
2,GCCGTTCA,-0.0703
3,GAGACCTA,-0.118
4,ATGCATGC,0.216
5,TCGACCCA,0.0438
6,AACGGAAC,0.158
7,AGCAATAA,0.092
8,GACTTGCA,0.118
9,AGGCAAAT,0.0439
10,AAAAACAG,-0.0766
11,CTCGCTAA,0.0053
12,ATTCAAAT,0.229
13,AGATCGCT,0.0393
14,GAGCGTTA,0.138
15,ATTGGCAC,0.0636
16,CTACGGAC,-0.188
17,GATACGGA,0.0795
18,TAAGATCA,0.0547
19,GCAAGCCA,-0.145
20,GAATATGC,0.047
21,AGTTGTAT,0.0942
22,ATTACGGG,-0.0551
23,ACCCCGCA,0.0794
24,CCTGTTGA,0.0889
25,AGAGTACA,-0.0606

row,Sequence,PBM E-score
1,AGACACCA,0.0437
2,GAGCTATA,-0.189
3,AGTTATCA,0.0481
4,CGCCTCCG,-0.276
5,ATTCTCTG,-0.0244
6,ACCCGAGC,-0.028
7,TGTATCAA,0.153
8,AGAACTAT,0.0661
9,GGTGTCAC,0.115
10,ATACCGGG,0.107
11,CTACTGAC,-0.00067
12,AGTGCTGG,0.0389
13,GCCAGACA,0.104
14,CGGGAAGA,0.0795
15,ATGTTATC,0.144
16,ACAAACTG,-0.0705
17,AGGCGAGG,-0.157
18,AGCTTACG,0.248
19,GAGACAGC,0.0272
20,CCCACCTC,-0.154
21,GACCCTCA,-0.28
22,GTATAAGA,-0.0708
23,GCCGCTGA,0.103
24,AATGCTGA,0.137
25,TGCCCGCA,0.067

row,Sequence,PBM E-score
1,CGAAGTCC,-0.116
2,ATATACGC,-0.0916
3,TCCACAGA,0.11
4,GAACTCCA,0.102
5,CGAACTGA,-0.17
6,CGGAGACG,0.137
7,CGCCACTA,-0.0319
8,ATCGTGCG,0.325
9,CGCCTAAG,-0.154
10,CCAAGTCG,0.0392
11,AATTATGA,0.297
12,GCAGATAA,-0.0236
13,AGATCCAC,-0.0172
14,AATGTGAC,0.221
15,GAGCGGAA,0.174
16,CACGAGGG,-0.227
17,AGGACTAA,0.0814
18,AAAGTCAT,0.074
19,AGCCATTG,0.102
20,AGCAAGGA,-0.22
21,ACAGGTAG,-0.119
22,CACCCGTC,-0.0451
23,CAAGTGGG,-0.0476
24,AAACGCGC,0.00737
25,CGTGTGCA,0.038

row,Sequence,PBM E-score
1,AACAACAA,0.058
2,CAACGGCC,-0.00472
3,AAGTGTAA,-0.0374
4,ACTCACTG,0.0609
5,ATCTGCTC,0.0186
6,AAACACAT,0.111
7,AGGGCCCT,-0.115
8,TACTGCTA,-0.0546
9,AAATGACT,0.0638
10,GCAGGTTA,-0.217
11,ATCAGACG,0.0655
12,ACTGCGGG,-0.0136
13,CCCAATAA,-0.0013
14,GCGTTGAC,0.112
15,ACGAGGGG,-0.358
16,TGGAGCAA,0.0665
17,AGAATAGC,0.159
18,ATCCTCGG,0.122
19,AGTCGTAC,-0.228
20,CCCCTCGA,-0.113
21,CAATGGGC,-0.139
22,CCCAGGTA,-0.227
23,AGAGAGTA,-0.125
24,TCTGGAAA,0.00954
25,GCTTATAC,0.0132

row,Sequence,PBM E-score
1,AAGGGATG,-0.161
2,TCCACCGA,-0.0875
3,CGCTGCTA,-0.11
4,ACGTCCAA,-0.0166
5,GTTGGTAA,0.19
6,GAGGCAAC,0.0448
7,ACGATTCG,0.111
8,GGCTTAAC,0.0615
9,ATGAGCGG,-0.0151
10,CGTGGAGA,-0.0377
11,GATCTCAC,-0.0178
12,CCGACTAA,0.0547
13,TCTCGTCA,-0.00087
14,ATCTATGC,0.0253
15,AAGATCAA,-0.0288
16,GACACTAA,0.0765
17,CTGCATGC,0.105
18,AGGGTCTC,-0.138
19,CTCCGCGC,-0.0989
20,AATAGCCA,0.0741
21,GTTGCAAA,0.187
22,AATTAATC,0.227
23,AGTGCCTC,-0.212
24,AAACGCAC,0.0177
25,GAGAACTC,-0.157

row,Sequence,PBM E-score
1,AACAGCCC,-0.00726
2,ATCGTACG,0.121
3,CGCGATAG,0.112
4,CAGACGTA,0.0446
5,GACCAAGA,-0.0292
6,TTCACAAA,0.085
7,CAGGGATA,-0.0646
8,CGCACGTA,-0.0721
9,ACGCCCCC,-0.407
10,GCTCATCC,-0.0355
11,CCCAGCTA,-0.16
12,AAACCGCC,-0.0149
13,GAATATTA,0.227
14,GGGCGTAC,-0.0904
15,TTACCTAA,0.334
16,GTTGAAGA,0.0205
17,ACCATTTA,0.0626
18,CTGCGGTA,0.0345
19,CCAATGCG,-0.0336
20,ACCATAAG,-0.183
21,ATATCTGA,0.124
22,AGACGACA,-0.0566
